# Experimental data reported in PubChem BioAssay AID2551 (National Center for Advancing Translational Sciences (NCATS), 2010).
# By UniProt entry, the sequences of proteins in these tests, tags left out. Where a name states a change or a piece, a line headed by the entry shows the natural chain unless it says otherwise.
# UniProt P51450: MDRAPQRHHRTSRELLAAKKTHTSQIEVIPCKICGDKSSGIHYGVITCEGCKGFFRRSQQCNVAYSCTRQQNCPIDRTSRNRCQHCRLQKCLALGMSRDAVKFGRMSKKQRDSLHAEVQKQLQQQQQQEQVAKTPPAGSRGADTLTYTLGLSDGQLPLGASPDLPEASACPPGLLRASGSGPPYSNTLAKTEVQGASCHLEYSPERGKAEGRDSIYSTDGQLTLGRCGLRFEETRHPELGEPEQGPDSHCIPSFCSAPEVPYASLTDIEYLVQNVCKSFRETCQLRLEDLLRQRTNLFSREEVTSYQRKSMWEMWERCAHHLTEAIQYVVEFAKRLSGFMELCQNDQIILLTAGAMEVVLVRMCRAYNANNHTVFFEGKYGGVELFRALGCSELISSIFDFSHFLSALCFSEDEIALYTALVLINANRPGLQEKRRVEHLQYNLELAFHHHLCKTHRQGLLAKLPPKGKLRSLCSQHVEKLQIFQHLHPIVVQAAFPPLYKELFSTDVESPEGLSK
# About 17,000 (5.5%) of roughly 310,000 compounds were called active. Inconclusive results, whose numbers are uncertain, are shown with a selection of clear calls. The call rests on the fitted dose curve; in most records, active means well fitted inhibition curve with a large enough effect; inconclusive means small, poorly fitted or top-dose-only effect, or effect the other way; inactive means no such curve, though single readings can be large or run the other way. Potencies beside an inconclusive call are fits to weak or partial responses and may not hold up.
# Target: Nuclear receptor ROR-gamma (Mus musculus) (UniProt P51450)
# Test: qHTS for inhibitors of ROR gamma transcriptional activity; further: nearly all actives have a fitted effect of over 60% in size
# Conditions: Drosophila S2 Gal4-RORgamma UAS-luciferase reporter, 20 h; series mostly up to 53.6 µM
# Procedure, shortened: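 Drosophila Schneider cells stably carrying a metallothionein-driven Gal4 DBD–ROR gamma fusion and a UAS-Photinus luciferase reporter were exposed to compound for 1 hr, then induced with copper sulfate (700 uM final) for 20 hr at ambient temperature before luminescence reading.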
# Potency means the concentration at half of the fitted maximal effect.
row,SMILES,Potency
1,CCCCNC(=S)N(C)/N=C/c1c(C)[nH]c2ccccc12,active: 12.6 µM
2,CC(=O)Oc1c2c(c3c(c1CC=C(C)C)O[C@@]14C(=CC5CC1C(C)(C)OC4(C/C=C(\C)C(=O)O)C5=O)C3=O)OC(C)(CCC=C(C)C)C=C2 (stereo partly specified),active: 5.62 µM
3,COc1c(C(=O)NCCSC(C)(C)C)ccc2ccccc12,active: 2.24 µM
4,O=C(CSc1nc2ccccc2o1)Nc1nc2ccccc2s1,"inconclusive: 15.8 µM [inhibitor, single point]"
5,COc1ccc(CCc2nc(-c3cccs3)no2)cc1,"inconclusive: 7.94 µM [activator, partial curve, poor fit]"
6,CC1CC(C)CN(C(=S)Nc2ccc(SC(F)F)cc2)C1 (stereo unspecified),active: 5.01 µM
7,COc1ccc(-n2nnnc2-c2ccc(S(C)(=O)=O)cc2Cl)cc1,"inconclusive: 11.2 µM [activator, partial curve]"
8,COc1ccccc1N1CCN(C(=O)c2noc(C)c2[N+](=O)[O-])CC1,inactive
9,C=CCN(c1ccccc1)S(=O)(=O)c1ccc2c(c1)N(C(C)=O)CCO2,inactive
10,COC(c1ccccc1)c1nnc(CCC(=O)N(C)Cc2cccc(-n3cccn3)c2)o1 (stereo unspecified),"inconclusive: 7.08 µM [activator, partial curve]"
11,O=C(O)c1ccc(N=Nc2c(O)ccc3ncccc23)cc1,active: 1.12 µM
12,COc1ccc(C(=O)OCC(=O)Nc2ccc(Cl)cn2)cc1,inactive
13,CC1CC(=O)N(C)c2cc([N+](=O)[O-])ccc2N1 (stereo unspecified),"inconclusive: 14.1 µM [inhibitor, partial curve]"
14,Cc1nc2ccccc2cc1C(=O)N/N=C/c1ccc([N+](=O)[O-])cc1,"inconclusive: 12.6 µM [activator, single point]"
15,Cc1sc2ncnc(OCC(=O)c3ccc(S(=O)(=O)N4CCCC4)cc3)c2c1C,"inconclusive: 5.62 µM [activator, partial curve]"
16,COc1ccc(-c2cc3nc(C)c(CCC(=O)NC(C)CCc4ccco4)c(C)n3n2)c(OC)c1 (stereo unspecified),"inconclusive: 31.6 µM [activator, single point]"
17,O=C1/C(=C/c2ccc(C(=O)O)cc2)CCC/C1=C\c1ccc(C(=O)O)cc1,inactive
18,CC(CCc1ccc(O)cc1)NCCC(c1ccccc1)c1ccccc1 (stereo unspecified),"inconclusive: 11.2 µM [inhibitor, single point]"
19,CCOC(=O)c1cc(CC)sc1/N=C/C1=C(O)CC(C)(C)CC1=O,inactive
20,CC1(C)C2CCC1(CS(=O)(=O)Nc1ccc(S(=O)(=O)N3CCCCC3)cc1)C(=O)C2 (stereo unspecified),"inconclusive: 14.1 µM [activator, partial curve]"
21,COc1ccccc1N1CCN(S(=O)(=O)c2ccc3c(c2)NC(=O)C(C)S3)CC1 (stereo unspecified),"inconclusive: 35.5 µM [activator, single point]"
22,Cc1cc(OCC(=O)N(C)C2CCCCC2)ccc1Cl,"inconclusive: 2.82 µM [inhibitor, single point]"
23,Cc1cccc(C)c1NC(=O)COn1nnc2ccc(C(F)(F)F)cc21,inactive
24,O=C(c1ccccc1)N1CCCC(c2ccc(Cl)cc2)=N1,"inconclusive: 35.5 µM [inhibitor, single point]"

row,SMILES,Potency
1,Cc1cccc(C(=O)Nc2cccc(C(=O)N/N=C/c3ccncc3)c2)c1,inactive
2,CCN(CC)C(=O)c1[nH]cnc1C(=O)Nc1ccc(OC)cc1,"inconclusive: 20 µM [inhibitor, single point]"
3,CC1(C)NC(=O)N(c2ccccc2Cl)C1(C)NO (stereo unspecified),"inconclusive: 35.5 µM [activator, single point]"
4,O=C(NCc1ccccn1)C(=O)N/N=C/c1ccccc1O,"inconclusive: 7.94 µM [inhibitor, partial curve]"
5,CC(OC(=O)c1cc[n+]([O-])cc1)C(=O)Nc1ccc(Cl)cn1 (stereo unspecified),inactive
6,CC(=O)NCCNc1ncncc1-c1ccc(N(C)C)cc1,"inconclusive: 35.5 µM [activator, single point]"
7,CN1c2ccsc2/C(=N/NC(=O)c2c(F)cccc2F)CS1(=O)=O,active: 3.16 µM
8,O=C(CNC(=O)c1nc[nH]c1C(=O)N1CCN(c2ccccc2)CC1)OCc1ccccc1,"inconclusive: 20 µM [inhibitor, single point]"
9,COc1ccccc1C(=O)NCc1n[nH]c(=S)n1Cc1ccccc1,"inconclusive: 7.08 µM [inhibitor, partial curve]"
10,COc1ccc(/C=N/NS(=O)(=O)c2ccccc2)cc1OC(=O)c1ccc(C)cc1,inactive
11,CCOc1ccccc1/C=N/NC(=O)CSc1n[nH]c(=O)[nH]c1=O,inactive
12,Cc1cc(C(=O)Cn2nnc3ccccc3c2=O)c(C)n1Cc1cccs1,"inconclusive: 11.2 µM [inhibitor, single point]"
13,C/C=C1\COC(C(=O)NCc2ccccc2)(C(F)(F)F)C=C1C=C(C)C (stereo unspecified),"inconclusive: 22.4 µM [inhibitor, single point]"
14,O=C(CCNC(=O)c1ccc([N+](=O)[O-])cc1)NCCc1ccccc1,inactive
15,O=[N+]([O-])c1ccc(C=Nc2ccc(Cl)cc2Cl)s1,"inconclusive: 35.5 µM [inhibitor, single point]"
16,O=C1OC(c2cccs2)=N/C1=C\c1ccc(-c2cccc(Cl)c2)o1,"inconclusive: 22.4 µM [activator, single point]"
17,CNC(=S)NNC(=O)c1sccc1OCc1ccc(C)cc1,"inconclusive: 15.8 µM [inhibitor, partial curve, poor fit]"
18,COc1ccc(C(=O)C2CCCN(C(=O)c3cc(C4CC4)[nH]n3)C2)c(C)c1 (stereo unspecified),"inconclusive: 17.8 µM [activator, partial curve]"
19,CC(=O)c1ccc(Sc2nnnn2-c2ccccc2)c([N+](=O)[O-])c1,active: 8.91 µM
20,COc1ccccc1CNS(=O)(=O)c1cccc(S(=O)(=O)N2CCOCC2)c1,"inconclusive: 0.1 µM [inhibitor, full curve, poor fit]"
21,Oc1c(Br)cc(/C=N/n2c(-c3ccccc3)n[nH]c2=S)cc1Br,"inconclusive: 14.1 µM [activator, partial curve]"
22,COCCNc1nc(SCc2ccccc2)nc2sc3c(c12)CCC3,"inconclusive: 22.4 µM [inhibitor, single point]"
23,CCCOc1ccc(NC(=O)CC2C(=O)N(Cc3ccccc3)C(=S)N2Cc2cccs2)cc1 (stereo unspecified),"inconclusive: 12.6 µM [activator, partial curve]"
24,NC(=O)C1(N2CCCCC2)CCN(CC(=O)Nc2cc(Cl)ccc2Cl)CC1,inactive

row,SMILES,Potency
1,Cn1c(-c2sc3cc(C(F)(F)F)cnc3c2-c2ccccn2)n[nH]c1=S,"inconclusive: 15.8 µM [inhibitor, single point]"
2,Cc1cccc(CN2CCN(C(=O)c3cccc4ccccc34)CC2)c1,inactive
3,COC(=O)CSc1nc(N)c2c3c(sc2n1)C(c1ccccc1)SC(c1ccccc1)C3 (stereo unspecified),active: 10 µM
4,NC(=O)COC(=O)CCCc1nc2ccccc2s1,"inconclusive: 10 µM [inhibitor, single point]"
5,Cc1ccccc1NC(=O)Nc1cccs1,"inconclusive: 25.1 µM [inhibitor, single point]"
6,Cc1cc(N)n2nc(-c3ccc(C(C)(C)C)cc3)cc2n1,"inconclusive: 14.1 µM [inhibitor, single point]"
7,CC(=O)c1cc2c(cc1NC(=O)Cn1nc(-c3ccc(F)cc3)ccc1=O)OCO2,"inconclusive: 6.31 µM [activator, single point]"
8,Cc1cc(C)n(-c2nc(SCC(=O)Nc3nccs3)c3c4c(sc3n2)COC(C)(C)C4)n1,"inconclusive: 25.1 µM [inhibitor, single point]"
9,Cc1ccc(-c2nc3ccccn3c2NC(=O)c2ccco2)cc1,active: 39.8 µM
10,C/C(=N\NC(=O)C1CC1)c1ccccc1O,active: 1 µM
11,c1ccc(-c2ccc(-c3nccc4ccccc34)[nH]2)cc1,active: 5.01 µM
12,Cc1cc(=O)n2nc(N3CCC(C(=O)NCc4ccc(Cl)cc4)CC3)sc2n1,inactive
13,O=[N+]([O-])c1ccc(O)c(/C=N/Nc2ccccc2[N+](=O)[O-])c1,"inconclusive: 6.31 µM [activator, single point]"
14,CCOC(=O)N1CCC(Nc2ccc3nnc(-c4ccccc4)n3n2)CC1,inactive
15,CC1=C(C(=O)OCc2ccccc2)C(/C=C/c2ccccc2)NC(=S)N1 (stereo unspecified),"inconclusive: 7.08 µM [inhibitor, full curve, poor fit]"
16,COc1ccc(S(=O)(=O)N2CCCCC2)cc1NC(=S)Nc1ccccc1,inactive
17,COc1ccc(-n2nc(C(=O)O)nc2-c2ccccc2)cc1,inactive
18,COc1ccc(S(=O)(=O)NCc2ccc(C(=O)N(C)Cc3ccco3)cc2)cc1,"inconclusive: 22.4 µM [activator, single point]"
19,COC(=O)c1ccc(Oc2ccc(S(=O)(=O)N3CCCCC3)cc2N)cc1,"inconclusive: 35.5 µM [activator, single point]"
20,Cc1cc(O)c(C(=O)Nc2cccc(Cl)c2)c(=O)n1C,"inconclusive: 0.562 µM [activator, full curve]"
21,O=C(Nc1nc2ccccc2s1)C1CCN(S(=O)(=O)c2cc([N+](=O)[O-])ccc2Cl)CC1,"inconclusive: 35.5 µM [inhibitor, single point]"
22,CCOC(=O)c1ccc(NC(=O)c2nc[nH]c2C(=O)N[C@@H](CC(C)C)C(=O)OCc2ccccc2)cc1,active: 1.12 µM
23,COCCNc1nc(-c2cc(C)c(C)cc2C)cs1,"inconclusive: 22.4 µM [inhibitor, single point]"

# In the list so far, these have a tert-butyl group.
row,SMILES,Potency
3,COc1c(C(=O)NCCSC(C)(C)C)ccc2ccccc12,active: 2.24 µM
6,Cc1cc(N)n2nc(-c3ccc(C(C)(C)C)cc3)cc2n1,"inconclusive: 14.1 µM [inhibitor, single point]"

# Molecules shown so far with a furan ring, fused or not (4):
row,SMILES,Potency
16,COc1ccc(-c2cc3nc(C)c(CCC(=O)NC(C)CCc4ccco4)c(C)n3n2)c(OC)c1 (stereo unspecified),"inconclusive: 31.6 µM [activator, single point]"
16,O=C1OC(c2cccs2)=N/C1=C\c1ccc(-c2cccc(Cl)c2)o1,"inconclusive: 22.4 µM [activator, single point]"
9,Cc1ccc(-c2nc3ccccn3c2NC(=O)c2ccco2)cc1,active: 39.8 µM
18,COc1ccc(S(=O)(=O)NCc2ccc(C(=O)N(C)Cc3ccco3)cc2)cc1,"inconclusive: 22.4 µM [activator, single point]"
